Test results published in patent US20260274922A1, “SYNTHETIC ESTROGEN RECEPTOR (ER)-DERIVED PEPTIDE” (THE TEXAS A&M UNIVERSITY SYSTEM, priority 2023, published 2026).
At least one structure is not confirmed: it was looked up by name or label, or the drawing left a doubt.

Legend:
[1] = test system: insulin signaling (IRS1, pAKT); experiment: Palmitate-induced insulin resistance in primary mouse hepatocytes; type: cell-based
[2] = test system: DKO OVX female mice; experiment: E2 supplement in DKO OVX female mice; type: in vivo, mouse

| SMILES | IRS1 phosphorylation at S302 [1] | IRS1 protein levels [1] | insulin-induced AKT phosphorylation [1] | glucose tolerance ([2]; E2 pellet 0.05 mg/pellet s.c.) | insulin sensitivity ([2]; E2 pellet 0.05 mg/pellet s.c.) | hepatic insulin signaling ([2]; liver) | mRNA expression levels of G6pc ([2]; liver) | mRNA expression levels of Pck1 ([2]; liver) |
| --- | --- | --- | --- | --- | --- | --- | --- | --- |
| CCCCCCCCCCCCCCCC(=O)O [Palmitate] | stimulated | reduced | reduced | – | – | – | – | – |
| C[C@]12CC[C@@H]3c4ccc(O)cc4CC[C@H]3[C@@H]1CC[C@@H]2O [E2, Estradiol-17β] | – | – | – | significantly improved | significantly improved | significantly enhanced | significantly decreased | significantly decreased |
